Patent US11666558B2, “Methods of treating intraocular pressure with activators of Tie-2” (EyePoint Pharmaceuticals, Inc., priority 2015, dated 2023)
Several values for one entry are separate records, joined by “and”; a condition that tells them apart may be missing. Equal entries are not always repeated. Structures can show the parent of a compound that is named as a salt. This continues a long series; more values of the same kind are listed elsewhere.

Experiment: Ocular tissue concentrations (aqueous humor, vitreous humor, iris, retina, choroid, cornea) after topical ocular, subcutaneous and intravitreal administration
Type: in vivo, New Zealand White rabbits
Conditions: for vitreous humor Conc., individual eyes (OD, OS): Group 1 topical ocular 1.2 mg/eye; for Choroid homogenate Conc., individual eyes (OD, OS) / Choroid tissue Conc., individual eyes (OD, OS) / Cornea homogenate Conc., individual eyes (OD, OS) / Cornea tissue Conc., individual eyes (OD, OS) / Iris homogenate Conc., individual eyes (OD, OS) / Iris tissue Conc., individual eyes (OD, OS) / Retina homogenate Conc., individual eyes (OD, OS) / Retina tissue Conc., individual eyes (OD, OS): topical ocular 1.2 mg/eye (~0.7 mg/kg/dose)
Method: To measure the concentration of Compound 1 in plasma and ocular tissues following topical ocular, subcutaneous, and intravitreal administration, New Zealand White rabbits were administered Compound 1, and plasma and ocular samples were collected at pre-determined time points. Compound 1 formulations were prepared fresh on each day of dosing.
Ocular tissue samples from both eyes of each animal were collected and weights were recorded. Plasma and ocular tissue sample concentrations of Compound 1 were determined by LC-MS/MS.
New Zealand White rabbits weighing 2.5 to 3.5 kg were used on this study. Rabbits were housed one per cage. Animals were not fasted and only healthy animals with no ocular illness were used. Two rabbits per group were sacrificed at each of four ocular tissue sampling time points for a total of eight rabbits per group.
Animals were anesthetized for ocular (topical) and intravitreal dosing following the 12IA7 IACUC protocol. Each rabbit received a bolus dose of test formulation either via topical ocular administration 3 times daily on Days 1 and 2 (at 0, 6, and 12 hours), and once on Day 3 (at 0 hours) into both eyes; via intravitreal administration into both eyes once on Day 1 (at 0 hours); or via subcutaneous administration 2 times daily on Days 1 and 2 (at 0 and 8 hours) and once daily on Day 3 (at 0 hours). Doses were given within an approximately 1 hour window each day where applicable.
On Day 1, for intravitreal administration, or on Day 3, for topical ocular and subcutaneous administration, at the appropriate ocular tissue collection time points, animals were euthanized and both eyes were enucleated immediately. Following enucleation, each eye was rinsed with phosphate-buffered saline. Ocular tissue samples from both eyes of each animal were collected at predetermined time points and weights were recorded. All the samples were frozen immediately on dry ice, and stored at −60° C. to −80° C. pending bioanalysis.
An LC-MS/MS method was developed for the determination of Compound 1 in rabbit aqueous tissues (plasma, aqueous and vitreous humor) and solid ocular tissue samples. A pre-study standard curve was analyzed to determine the specificity, range, and lower limit of quantitation of the method. Plasma and tissue homogenate study samples were extracted and analyzed. All the samples were treated identically to the standards.
One eight-point standard curve was used in each analytical batch. To be accepted, each batch must have had at least five of eight standards with accuracy within ±20% of nominal, except at the lower limit of quantification (LLOQ), where ±25% was acceptable.
Concentration versus time data is plotted in FIGS. 3-16. All data are expressed as ng/g of the free drug. Samples that were below the limit of quantitation (0.2 ng/mL) were not used in the calculation of averages.

Which “vitreous humor Conc., individual eyes (OD, OS)” value (0.5 hr) does the source give for COC(=O)N[C@@H](Cc1ccccc1)C(=O)N[C@@H](Cc1ccc(NS(=O)(=O)O)cc1)c1csc(-c2cccs2)n1 [Compound 1 sodium salt] here?
Its value is 0.549 ng/mL and 0.507 ng/mL.

What about the “vitreous humor Conc., individual eyes (OD, OS)” value (1.0 hr) of the same compound?
Its value is 1.97 ng/mL and 0.282 ng/mL and 3.28 ng/mL and 2.83 ng/mL.

What about the “Choroid homogenate Conc., individual eyes (OD, OS)” value (0.5 hr) of the same compound?
Its value is 2.75 ng/mL and 1.47 ng/mL and 5.55 ng/mL and 11.2 ng/mL.

And the “Choroid tissue Conc., individual eyes (OD, OS)” value (0.5 hr)?
The value was 16.2 ng/g and 30.3 ng/g and 123 ng/g and 61.1 ng/g.

What about the “Cornea homogenate Conc., individual eyes (OD, OS)” value (0.5 hr) of the same compound?
The value was 21.8 ng/mL and 38.8 ng/mL and 33.6 ng/mL and 275 ng/mL.

What about the “Cornea tissue Conc., individual eyes (OD, OS)” value (0.5 hr) of the same compound?
The value was 240 ng/g and 370 ng/g.

What about the “Iris homogenate Conc., individual eyes (OD, OS)” value (0.5 hr) of the same compound?
Its value is 1.62 ng/mL and 1.7 ng/mL and 2.95 ng/mL.

And the “Iris tissue Conc., individual eyes (OD, OS)” value (0.5 hr)?
The value was 28.1 ng/g and 32.5 ng/g and 18.7 ng/g.

And the “Retina homogenate Conc., individual eyes (OD, OS)” value (0.5 hr)?
Its value is 0.695 ng/mL and 3.06 ng/mL and 2.54 ng/mL and 3.01 ng/mL.

What about the “Retina tissue Conc., individual eyes (OD, OS)” value (0.5 hr) of the same compound?
Its value is 33.7 ng/g and 7.65 ng/g and 33.1 ng/g and 27.9 ng/g.

What about the “Choroid homogenate Conc., individual eyes (OD, OS)” value (1 hr) of the same compound?
The value was 5.56 ng/mL and 1.50 ng/mL and 2.89 ng/mL and 1.77 ng/mL.

What about the “Choroid tissue Conc., individual eyes (OD, OS)” value (1 hr) of the same compound?
Its value is 16.5 ng/g and 61.2 ng/g and 19.5 ng/g and 31.8 ng/g.

What about the “Cornea homogenate Conc., individual eyes (OD, OS)” value (1 hr) of the same compound?
The value was 87.2 ng/mL and 43.8 ng/mL and 19.9 ng/mL and 48.4 ng/mL.

And the “Cornea tissue Conc., individual eyes (OD, OS)” value (1 hr)?
Its value is 482 ng/g and 959 ng/g and 532 ng/g and 219 ng/g.

What about the “Iris homogenate Conc., individual eyes (OD, OS)” value (1 hr) of the same compound?
Its value is 1.57 ng/mL and 2.70 ng/mL and 5.69 ng/mL and 10.1 ng/mL.

What about the “Iris tissue Conc., individual eyes (OD, OS)” value (1 hr) of the same compound?
Its value is 29.7 ng/g and 17.3 ng/g and 111 ng/g and 62.6 ng/g.

What about the “Retina homogenate Conc., individual eyes (OD, OS)” value (1 hr) of the same compound?
Its value is 6.99 ng/mL and 2.01 ng/mL and 7.81 ng/mL and 4.70 ng/mL.

What about the “Retina tissue Conc., individual eyes (OD, OS)” value (1 hr) of the same compound?
The value was 22.1 ng/g and 76.9 ng/g and 51.7 ng/g and 85.9 ng/g.

And the “Choroid homogenate Conc., individual eyes (OD, OS)” value (2 hr)?
Its value is 1.19 ng/mL and 3.99 ng/mL and 10.5 ng/mL and 5.86 ng/mL.

What about the “Choroid tissue Conc., individual eyes (OD, OS)” value (2 hr) of the same compound?
Its value is 43.9 ng/g and 13.1 ng/g and 64.5 ng/g and 116 ng/g.

And the “Cornea homogenate Conc., individual eyes (OD, OS)” value (2 hr)?
The value was 20.9 ng/mL and 25.4 ng/mL and 87.8 ng/mL and 256 ng/mL.

And the “Cornea tissue Conc., individual eyes (OD, OS)” value (2 hr)?
Its value is 279 ng/g and 230 ng/g and 2816 ng/g and 966 ng/g.

And the “Iris homogenate Conc., individual eyes (OD, OS)” value (2 hr)?
The value was 1.12 ng/mL and 2.99 ng/mL and 5.40 ng/mL and 9.38 ng/mL.

And the “Iris tissue Conc., individual eyes (OD, OS)” value (2 hr)?
The value was 32.9 ng/g and 12.3 ng/g and 103 ng/g and 59.4 ng/g.

And the “Retina homogenate Conc., individual eyes (OD, OS)” value (2 hr)?
Its value is 1.56 ng/mL and 8.93 ng/mL and 4.54 ng/mL and 2.54 ng/mL.

What about the “Retina tissue Conc., individual eyes (OD, OS)” value (2 hr) of the same compound?
Its value is 98.2 ng/g and 17.2 ng/g and 27.9 ng/g and 49.9 ng/g.

And the “Choroid homogenate Conc., individual eyes (OD, OS)” value (4 hr)?
Its value is 2.53 ng/mL and 7.37 ng/mL and 4.74 ng/mL and 45.4 ng/mL.

What about the “Choroid tissue Conc., individual eyes (OD, OS)” value (4 hr) of the same compound?
Its value is 81.1 ng/g and 27.8 ng/g and 52.1 ng/g.

And the “Cornea homogenate Conc., individual eyes (OD, OS)” value (4 hr)?
Its value is 44.8 ng/mL and 37.0 ng/mL and 32.9 ng/mL and 79.4 ng/mL.

What about the “Cornea tissue Conc., individual eyes (OD, OS)” value (4 hr) of the same compound?
Its value is 407 ng/g and 493 ng/g and 873 ng/g and 362 ng/g.

And the “Iris homogenate Conc., individual eyes (OD, OS)” value (4 hr)?
Its value is 2.97 ng/mL and 2.79 ng/mL and 2.54 ng/mL and 86.7 ng/mL.

And the “Iris tissue Conc., individual eyes (OD, OS)” value (4 hr)?
The value was 32.7 ng/g and 27.9 ng/g.

And the “Retina homogenate Conc., individual eyes (OD, OS)” value (4 hr)?
Its value is 1.60 ng/mL and 5.89 ng/mL and 9.88 ng/mL and 130 ng/mL.

And the “Retina tissue Conc., individual eyes (OD, OS)” value (4 hr)?
Its value is 64.8 ng/g and 17.6 ng/g and 109 ng/g.
